Test results published in patent US11234971B2, “Methods of treating cancer comprising administration of a glucocorticoid receptor modulator and a cancer chemotherapy agent” (Corcept Therapeutics Incorporated, priority 2018, dated 2022).

System: OVCAR-5 human ovarian cancer cells
Assay: OVCAR-5 cell growth (Cell Titer-Glo) with chemotherapy agents with or without dexamethasone and relacorilant
Assay type: cell-based
Details: 100 nM dexamethasone, 300 nM relacorilant
Experimental: The initial cell density was chosen to be low enough to allow for several population doublings (typically 3 to 5) during the indicated incubation period. […] After 48 hours of incubation, serially diluted test agents in growth medium were added to each well. After 72 hours of culture, the plated cells and Cell Titer-Glo® (Promega G7571) reagents were brought to room temperature to equilibrate for 30 minutes. 200 μL of Cell Titer-Glo® reagent was then added to each well, the plate was shaken for two minutes, and then left to equilibrate for ten minutes. The Cell Titer-Glo® cell viability assay uses ATP levels to determine cell numbers. After this equilibration, luminescence was read on the Biotech Synergy II microplate reader. The percent control (% C) of cell growth for each test concentration was calculated relative to untreated wells. All tests were performed in quadruplicate. Individual assay plates were evaluated for appropriate signal and well-to-well variance in the control wells for quality control.

CC/C(=C(\c1ccccc1)c1ccc(OCCN(C)C)cc1)c1ccccc1 [Tamoxifen]
IC50 (decrease in IC50 of the agent from dexamethasone-alone to relacorilant + dexamethasone): −
